The record followed here is article PMC8571378, “Reversion analysis reveals the in vivo immunogenicity of a poorly MHC I-binding cancer neoepitope” (Nature Communications, 2021).

This data set concerns MHC I. The data set can be described thus: Targeted MS (PRM) detection of peptides eluted from MHC I of peptide-pulsed BMDCs. On the set-up: species or system mouse (BALB/cJ BMDCs).
[1] abbreviates: BMDCs pulsed with 18-mer Ccdc85c^MUT, heavy labeled spike-in, PRM.

Turning to LYLDSKSDTTV, where the note is “BMDCs pulsed with 18-mer Alms1^MUT”, the “detection by targeted MS among MHC I-eluted peptides” value (“detection” for short) is recorded as “identified among the peptides eluted from MHC I molecules”.

Consider TYIRPFETKVK, for which the “detection” value under setting [1] is “presence”.

Consider YIRPFETKVK, for which the “detection” value under setting [1] is recorded as “presence”.
